According to article PMC8068801, “Novel Benzenesulfonate Scaffolds with a High Anticancer Activity and G2/M Cell Cycle Arrest” (Cancers, 2021):

Tests used:
Assay type in all cases: cell-based
[1] = system: PANC-1 cells; experiment: MTS cytotoxicity assay, PANC-1; conditions: Homo sapiens, 72 h incubation
Text: (§1) M. Rusin from the Maria Sklodowska-Curie Memorial Cancer Centre and Institute of Oncology in Gliwice, Poland. […] G. Kramer-Marek from the Institute of Cancer Research in London, United Kingdom. The human suspension chronic myelogenous leukemia cell line K562 and pancreas ductal adenocarcinoma cell line PANC-1 were purchased from Sigma-Aldrich (St. Louis, MO, USA), while the normal human dermal fibroblasts cell line NHDF were purchased from PromoCell. […] Each medium contained a combination of two antibiotics: penicillin and streptomycin (1% v/v; Gibco). All of these cell lines were grown under standard conditions at 37 °C with a 5% CO2 humidified atmosphere. Moreover, all of the cell lines were routinely tested for mycoplasma using the PCR technique with specific Mycoplasma primers to confirm that there was no contamination.
(§2) The assay was performed following a 72 h incubation with the various concentrations of the tested compounds. Then, 100 µL DMEM without phenol red with 20 µL of the CellTiter 96®AQueous One Solution-MTS (Promega, Promega, WI, USA) was added to each well and incubated for 1 h or 3 h (PANC-1) at 37 °C. The optical densities of the samples were measured at 490 nm using a multi-plate reader (Synergy 4, BioTek, Winooski, VT, USA). […] Each individual compound was tested in triplicate in a single experiment with each experiment being performed three or four times.

[2] = system: A549 cells; experiment: MTS cytotoxicity assay, A549; conditions: Homo sapiens, A549, 72 h, 72 h incubation
Text: as §1, §2

[3] = system: HCT 116 p53^−/− cells; experiment: MTS cytotoxicity assay, HCT 116 p53-/-; conditions: Homo sapiens, 72 h incubation
Text: as §1, §2

[4] = system: U-251 cells; experiment: MTS cytotoxicity assay, U-251; conditions: Homo sapiens, 72 h incubation
Text: as §1, §2

[5] = system: HCT 116 p53^+/+ cells; experiment: MTS cytotoxicity assay, HCT 116 p53+/+; conditions: Homo sapiens, 72 h incubation
Text: as §1, §2

[6] = system: NHDF cells; experiment: MTS cytotoxicity assay, normal fibroblasts NHDF; conditions: NHDF normal human fibroblasts, 72 h incubation
Text: The human colon carcinoma cell line HCT 116 wild type (p53^+/+), the human breast carcinoma cell line MCF-7 and the human alveolar basal epithelial cell line A549 were obtained from ATCC. The human colon cancer cell line HCT 116 with a p53 deletion (p53^−/−) was kindly supplied by prof. M. Rusin from the Maria Sklodowska-Curie Memorial Cancer Centre and Institute of Oncology in Gliwice, Poland. The glioblastoma cell line U-251 was kindly provided by prof. G. Kramer-Marek from the Institute of Cancer Research in London, United Kingdom. The human suspension chronic myelogenous leukemia cell line K562 and pancreas ductal adenocarcinoma cell line PANC-1 were purchased from Sigma-Aldrich (St. Louis, MO, USA), while the normal human dermal fibroblasts cell line NHDF were purchased from PromoCell. All of the adherent cancer cell lines were cultured in Dulbecco’s modified Eagle’s medium (DMEM) that had been supplemented with 12% heat-inactivated fetal bovine serum–FBS (all from Sigma-Aldrich) in 75 cm^2 flasks (Nunc). […]
The cells were seeded in 96-well plates (Nunc) at a density of 5000 cells per well (K562, HCT 116, MCF-7, U-251, A549, PANC-1) or 4000 cell per well (NHDF) and incubated under standard conditions at 37 °C for 24 h. […] The optical densities of the samples were measured at 490 nm using a multi-plate reader (Synergy 4, BioTek, Winooski, VT, USA). […]

[7] = system: MCF-7 cells; experiment: MTS cytotoxicity assay, MCF-7; conditions: Homo sapiens, MCF7, 72 h incubation
Text: as §1, §2

**Q.** With Cc1ccc(NC(=O)c2ccc(CN3CCN(C)CC3)cc2)cc1Nc1nccc(-c2cccnc2)n1 [Imatinib, reference compound] as the compound, how does the IC50 [1] read?
**A.** > 25 µM

**Q.** And the IC50 [2]?
**A.** > 25 µM

**Q.** And the IC50 [3]?
**A.** 51.2 ± 4.09 µM

**Q.** And the IC50 [4]?
**A.** > 25 µM

**Q.** What about the IC50 [5] of the same compound?
**A.** 44.6 ± 2.41 µM

**Q.** And the IC50 [6]?
**A.** > 25 µM

**Q.** What about the IC50 [7] of the same compound?
**A.** > 25 µM
